Measured values from paper PMC12805371.
No constants are given. Whether binding was seen depends on the method and setting. Binding seen in cells or lysates may run through a third protein. Some entries that bind do so weakly or less than the wild type.

Protein sequences, listed by entry. Tags and fused reporters are not part of them. Lines headed by an entry give the natural chain unless they say otherwise; changes in a name come on top. Residues count along the entry.
UniProt O75808: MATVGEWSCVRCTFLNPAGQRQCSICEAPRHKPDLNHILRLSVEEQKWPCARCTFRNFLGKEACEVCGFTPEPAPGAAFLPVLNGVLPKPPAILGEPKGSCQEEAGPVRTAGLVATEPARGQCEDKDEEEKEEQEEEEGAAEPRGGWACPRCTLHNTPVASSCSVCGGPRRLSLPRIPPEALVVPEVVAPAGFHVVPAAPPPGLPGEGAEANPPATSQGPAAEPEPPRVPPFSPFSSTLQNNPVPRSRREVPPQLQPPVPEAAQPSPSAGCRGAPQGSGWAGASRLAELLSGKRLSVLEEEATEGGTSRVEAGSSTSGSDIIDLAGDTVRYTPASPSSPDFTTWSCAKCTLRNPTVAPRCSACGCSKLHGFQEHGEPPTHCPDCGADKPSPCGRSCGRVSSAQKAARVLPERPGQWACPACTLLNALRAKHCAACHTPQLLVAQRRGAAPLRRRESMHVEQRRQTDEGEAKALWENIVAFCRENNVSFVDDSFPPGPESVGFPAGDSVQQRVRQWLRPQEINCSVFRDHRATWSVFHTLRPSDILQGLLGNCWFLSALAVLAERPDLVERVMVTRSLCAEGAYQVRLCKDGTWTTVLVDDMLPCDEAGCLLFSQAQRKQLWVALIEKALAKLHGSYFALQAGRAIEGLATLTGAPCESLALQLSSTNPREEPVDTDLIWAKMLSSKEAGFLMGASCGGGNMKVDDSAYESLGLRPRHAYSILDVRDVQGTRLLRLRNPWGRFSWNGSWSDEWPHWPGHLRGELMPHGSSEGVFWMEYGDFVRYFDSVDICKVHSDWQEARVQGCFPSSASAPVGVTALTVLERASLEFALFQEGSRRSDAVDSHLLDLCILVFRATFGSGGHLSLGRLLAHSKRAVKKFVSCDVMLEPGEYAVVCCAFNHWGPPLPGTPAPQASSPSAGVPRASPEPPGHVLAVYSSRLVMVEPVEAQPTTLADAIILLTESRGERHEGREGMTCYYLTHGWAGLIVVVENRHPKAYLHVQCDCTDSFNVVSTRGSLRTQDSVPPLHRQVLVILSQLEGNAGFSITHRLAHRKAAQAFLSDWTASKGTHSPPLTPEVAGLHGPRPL
UniProt P35221: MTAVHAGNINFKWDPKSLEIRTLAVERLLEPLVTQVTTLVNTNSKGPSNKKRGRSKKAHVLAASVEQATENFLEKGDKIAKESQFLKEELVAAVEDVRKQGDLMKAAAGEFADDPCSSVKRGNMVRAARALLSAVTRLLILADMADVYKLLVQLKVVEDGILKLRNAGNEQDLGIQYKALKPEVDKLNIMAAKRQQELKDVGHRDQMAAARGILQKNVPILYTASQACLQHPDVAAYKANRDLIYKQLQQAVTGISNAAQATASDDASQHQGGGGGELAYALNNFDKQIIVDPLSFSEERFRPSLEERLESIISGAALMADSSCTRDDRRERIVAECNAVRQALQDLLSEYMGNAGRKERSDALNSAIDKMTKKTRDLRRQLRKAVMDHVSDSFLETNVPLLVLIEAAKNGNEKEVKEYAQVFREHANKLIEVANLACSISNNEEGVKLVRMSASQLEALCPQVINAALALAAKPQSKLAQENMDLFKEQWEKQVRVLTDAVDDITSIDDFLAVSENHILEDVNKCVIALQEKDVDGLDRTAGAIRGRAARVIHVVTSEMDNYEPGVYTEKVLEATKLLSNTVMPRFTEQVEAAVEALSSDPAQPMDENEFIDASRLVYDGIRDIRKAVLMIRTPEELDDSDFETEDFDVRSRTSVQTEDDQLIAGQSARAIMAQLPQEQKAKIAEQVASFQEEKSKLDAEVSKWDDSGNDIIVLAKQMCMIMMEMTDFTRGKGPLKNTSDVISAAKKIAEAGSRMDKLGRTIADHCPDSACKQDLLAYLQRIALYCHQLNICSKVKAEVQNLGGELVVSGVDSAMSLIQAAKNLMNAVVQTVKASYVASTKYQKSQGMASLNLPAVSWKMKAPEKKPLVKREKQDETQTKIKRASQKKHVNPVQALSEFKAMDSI
UniProt P22223, residues 108-829: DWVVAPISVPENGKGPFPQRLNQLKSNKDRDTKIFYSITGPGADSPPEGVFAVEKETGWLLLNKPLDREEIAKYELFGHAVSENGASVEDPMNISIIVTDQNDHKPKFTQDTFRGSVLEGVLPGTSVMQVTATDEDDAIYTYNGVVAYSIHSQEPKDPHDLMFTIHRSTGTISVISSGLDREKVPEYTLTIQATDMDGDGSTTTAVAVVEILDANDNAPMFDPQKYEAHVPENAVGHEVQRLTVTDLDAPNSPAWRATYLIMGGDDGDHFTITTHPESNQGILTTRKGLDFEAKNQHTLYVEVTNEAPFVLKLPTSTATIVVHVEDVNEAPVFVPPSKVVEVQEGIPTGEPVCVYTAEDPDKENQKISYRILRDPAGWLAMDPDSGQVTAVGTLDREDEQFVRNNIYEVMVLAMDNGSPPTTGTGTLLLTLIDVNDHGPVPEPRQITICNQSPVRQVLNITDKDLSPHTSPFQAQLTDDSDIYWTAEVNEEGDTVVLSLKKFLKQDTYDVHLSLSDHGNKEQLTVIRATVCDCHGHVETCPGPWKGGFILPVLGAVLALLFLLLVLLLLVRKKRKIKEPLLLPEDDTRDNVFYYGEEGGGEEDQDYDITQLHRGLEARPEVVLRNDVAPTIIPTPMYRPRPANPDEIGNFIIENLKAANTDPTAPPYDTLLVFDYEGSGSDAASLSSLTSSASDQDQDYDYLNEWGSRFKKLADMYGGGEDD

How the values were obtained:
[1] = molecular target: FLAG-tagged WT CAPN15 (human) (UniProt O75808); test: co-IP; lysates of KO, WTtg, CStg and NEtg cells (stable FLAG-CAPN15 forms) immunoprecipitated with anti-FLAG antibody beads, western blotting; cells treated with DMSO or 1 μM MLN7243 (immunoprecipitation reduced), or with or without 2 mM EDTA for 30 min (immunoprecipitation enhanced in CStg)
[2] = molecular target: FLAG-tagged protease-inactive CAPN15C552S (human) (UniProt O75808); test: as above

Row | binding [1] | binding [2] | Substance
1 | binds | binds | α-catenin/CTNNA1 (from UniProt P35221 1-906)
2 | binds | binds | P-cadherin/CDH3 (from UniProt P22223 108-829)
